# PubChem BioAssay (NCATS)
# Inconclusive means that the source gave no clear call. Such entries were picked first, then a sample of the others. For some assays here: A potency beside an inconclusive call is a rough fit, not a confirmed value. The source made the active and inactive calls. Unless noted, calls come from the whole dose curve; as a rule, active = well fitted curve in the direction sought with a large enough effect; inconclusive = small, poorly fitted or top-dose-only effect, or another doubt; inactive = no such curve, though single readings can be large; an effect the other way counts as inactive or inconclusive.
# Tests used:
# [1] = Quantitative High-Throughput drug screen in 47 multiple myeloma cell lines against the NCATS MIPE library collection: UTMC2_PLB cell viability assay (AID 1919868); conditions: CellTiter-Glo ATP luminescence, 48 h; viability (% of DMSO control): at 45.8 µM (top of the series); note: nearly all actives have a fitted effect of over 55% in size
# Procedure, shortened: (§1)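 Viability after 48 h drug exposure was measured as ATP-dependent luminescence. Cells, 500 per well, sat at 37 °C under 5% CO2; DMSO wells set 100%, media-only wells 0%.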
# [2] = Quantitative High-Throughput drug screen in 47 multiple myeloma cell lines against the NCATS MIPE library collection: OPM2_DSMZ cell viability assay (AID 1919872); note: nearly all actives have a fitted effect of over 30% in size
# Procedure, shortened: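 CellTiter-Glo luminescence (ATP) after 48 h compound exposure, 37C/5% CO2; 500 cells/well; MIPE 4.0 approved/investigational drugs pinned in; DMSO = 100%, media only = 0% viability.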
# [3] = Quantitative High-Throughput drug screen in 47 multiple myeloma cell lines against the NCATS MIPE library collection: KMS11_JCRBsus cell viability assay (AID 1919873); note: nearly all actives have a fitted effect of over 50% in size
# Procedure, shortened: as §1
# [4] = qHTS for identification of novel therapeutic agents for treatment of microphthalmiaassociated transcription factor (MiT) renal cell carcinoma (RCC) (AID 1963991; calls by dose curve); conditions: TFE3-RCC UOK109 viability, CellTiter-Glo, 48 h; active = Z-AUC below -0.8 in all three lines
# Procedure, shortened: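 Three TFE3-fusion RCC lines (UOK109, UOK124, UOK145), 500 cells/well in complete medium, were treated with MIPE 4.0 compounds for 48 hours at 37 C. Viability was by CellTiter-Glo luminescence, normalized to DMSO (100%) and empty wells (0%); curves fitted over 11 concentrations.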
# [5] = Quantitative High-Throughput drug screen in 47 multiple myeloma cell lines against the NCATS MIPE library collection: KMS28BM_JCRB cell viability assay (AID 1919874); conditions: CellTiter-Glo ATP, 48 h; viability, % of control: at 45.8 µM (top of the series); note: nearly all actives have a fitted effect of over 35% in size
# Procedure, shortened: as §1
# [6] = Quantitative High-Throughput drug screen in 47 multiple myeloma cell lines against the NCATS MIPE library collection: PCM6_Riken cell viability assay (AID 1919870); note: nearly all actives have a fitted effect of over 30% in size
# Procedure, shortened: as §1
# [7] = Quantitative High-Throughput drug screen in 47 multiple myeloma cell lines against the NCATS MIPE library collection: RPMI8226_ATCC cell viability assay (AID 1919871); conditions: RPMI8226 myeloma viability, CellTiter-Glo ATP luminescence, 48 h; viability (% of control): at 45.8 µM (top of the series); note: nearly all actives have a fitted effect of over 30% in size
# Procedure, shortened: as §1
# [8] = Quantitative High-Throughput drug screen in 47 multiple myeloma cell lines against the NCATS MIPE library collection: PE2_PLB cell viability assay (AID 1919869); conditions: PE2_PLB myeloma cells viability, ATP luminescence, 48 h; viability (% of control): at 45.8 µM (top of the series); note: nearly all actives have a fitted effect of over 35% in size
# Procedure, shortened: as §1
# [9] = test system: 7G8; assay: qHTS profiling for inhibitors of Plasmodium falciparum proliferation (AID 504749); note: nearly all actives have a fitted effect of over 60% in size; conditions: P. falciparum in erythrocytes, SYBR Green DNA, 72 h; series mostly up to 28.7 µM
# Procedure, shortened: (§2)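 Readout was DNA-dye fluorescence from lysed cultures, ex 485/em 535 nm. Parasitized red cells had grown 72 h with compound; data scaled between 0.29 uM artemisinin and DMSO wells and corrected using vehicle-only plates.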
# [10] = as above; conditions: P. falciparum in erythrocytes, SYBR Green DNA, 72 h; Potency: parasite line B unless noted; series mostly up to 28.7 µM
# Procedure, shortened: as §2
# [11] = test system: 3D7; assay: as above; conditions: P. falciparum in erythrocytes, SYBR Green DNA, 72 h; series mostly up to 28.7 µM
# Procedure, shortened: as §2
# Potency is the fitted concentration of half-maximal effect.
smiles,measurement,setting,value
NC(=O)N1CCC(CC(=O)N2CCC([C@H]3c4ncc(Br)cc4CCc4cc(Cl)cc(Br)c43)CC2)CC1,Potency,[1],"inconclusive: 16.6 µM [cytotoxic, partial curve, poor fit]"
same,Potency,[2],"inconclusive: 14.8 µM [cytotoxic, partial curve, poor fit]"
same,Potency,[3],active: 10.5 µM
same,Potency,[4],"inconclusive: 9.35 µM [falling, partial curve]"
CCOc1cc2ncc(C#N)c(Nc3ccc(F)c(Cl)c3)c2cc1NC(=O)C=CCN(C)C,Potency,[1],active: 0.296 µM
same,Potency,[4],active: 0.0118 µM
CCCCc1oc2ccc(NS(C)(=O)=O)cc2c1C(=O)c1ccc(OCCCN(CCCC)CCCC)cc1,Potency,[1],"inconclusive: 20.9 µM [cytotoxic, partial curve, poor fit]"
same,Potency,[2],active: 23.5 µM
same,Potency,[4],"inconclusive: 23.5 µM [falling, partial curve]"
O=S(=O)(NCCNCC=Cc1ccc(Br)cc1)c1cccc2cnccc12,Potency,[1],active: 7.43 µM
same,Potency,[2],"inconclusive: 23.5 µM [cytotoxic, partial curve]"
same,Potency,[3],active: 16.6 µM
same,Potency,[5],active: 16.6 µM
same,Potency,[4],"inconclusive: 16.6 µM [falling, partial curve]"
O=C(O)c1ccc2c(c1)nc(Nc1cccc(Cl)c1)c1ccncc12,Potency,[1],active: 2.64 µM
same,Potency,[3],active: 7.43 µM
same,Potency,[5],"inconclusive: 6.62 µM [cytotoxic, full curve, poor fit]"
same,Potency,[4],"inconclusive: 13.2 µM [falling, partial curve]"
COc1cc(Nc2c(C#N)cnc3cc(OCCCN4CCN(C)CC4)c(OC)cc23)c(Cl)cc1Cl,Potency,[6],active: 1.87 µM
same,Potency,[7],"inconclusive: 26.4 µM [cytotoxic, single point]"
same,Potency,[2],"inconclusive: 23.5 µM [cytotoxic, single point]"
same,Potency,[3],active: 18.7 µM
same,Potency,[5],active: 18.7 µM
same,Potency,[4],"inconclusive: 0.0418 µM [falling, full curve]"
Nc1ncnc2c1c(-c1cccc(OCc3ccccc3)c1)cn2C1CC(CN2CCCC2)C1 (centres undefined),Potency,[1],active: 0.0662 µM
same,Potency,[2],active: 14.8 µM
same,Potency,[4],"inconclusive: 29.6 µM [falling, partial curve, poor fit]"
COC1CCC(C(=O)c2ccc3nc4c(cc3c2)CCCO4)CC1 (centres undefined),Potency,[1],"inconclusive: 37.2 µM [cytotoxic, single point]"
same,"viability, % of control",[5],inconclusive: 76.5% [cytotoxic]
same,Potency,[4],"inconclusive: 26.4 µM [falling, single point]"
Fc1ccc(CNc2ncnc3ccc(F)cc23)cc1,Potency,[8],"inconclusive: 7.43 µM [cytotoxic, partial curve]"
same,Potency,[6],"inconclusive: 5.9 µM [cytotoxic, partial curve]"
same,Potency,[3],active: 10.5 µM
same,Potency,[5],"inconclusive: 7.43 µM [cytotoxic, partial curve, poor fit]"
same,Potency,[4],"inconclusive: 18.7 µM [falling, partial curve]"
CN(C)CCCN1c2ccccc2CCc2ccc(Cl)cc21,Potency,[1],active: 0.833 µM
same,Potency,[2],"inconclusive: 0.935 µM [cytotoxic, full curve, poor fit]"
same,Potency,[4],"inconclusive: 0.662 µM [falling, full curve]"
same,Potency,[9],active: 5.01 µM
CCC(=C(c1ccc(O)cc1)c1ccc(OCCNC)cc1)c1ccccc1,Potency,[8],"inconclusive: 26.4 µM [cytotoxic, partial curve, poor fit]"
same,Potency,[6],active: 23.5 µM
same,Potency,[2],"inconclusive: 26.4 µM [cytotoxic, partial curve, poor fit]"
same,Potency,[5],active: 23.5 µM
same,Potency,[4],"inconclusive: 26.4 µM [falling, single point]"
c1cncc(CN2CCC(n3ncc4c(N5CCOCC5)nc(-c5ccc6[nH]ccc6c5)nc43)CC2)c1,Potency,[1],"inconclusive: 1.66 µM [cytotoxic, full curve, poor fit]"
same,Potency,[7],active: 6.62 µM
same,Potency,[4],"inconclusive: 2.09 µM [falling, full curve]"
CSc1cccc(Nc2ncc3cc(-c4c(Cl)cccc4Cl)c(=O)n(C)c3n2)c1,Potency,[8],"inconclusive: 0.105 µM [cytotoxic, full curve]"
same,Potency,[5],"inconclusive: 0.935 µM [cytotoxic, full curve, poor fit]"
same,Potency,[4],"inconclusive: 0.209 µM [falling, full curve]"
CC(=O)c1c(C)c2cnc(Nc3ccc(N4CCNCC4)cn3)nc2n(C2CCCC2)c1=O,Potency,[1],"inconclusive: 13.2 µM [cytotoxic, partial curve, poor fit]"
same,Potency,[2],"inconclusive: 9.35 µM [cytotoxic, partial curve]"
same,Potency,[4],"inconclusive: 5.9 µM [falling, full curve]"
O=C(C[C@@H]1CC=CCCC(=O)O[C@H](c2ccccc2)CNC1=O)NCc1ccc(Cl)cc1,Potency,[1],inactive
same,Potency,[4],"inconclusive: 4.69 µM [falling, partial curve]"
CN1CCN(c2cc(C(=O)Nc3ccc4c(c3)-c3c(c(C(N)=O)nn3-c3ccc(F)cc3)CC4)c(Cl)cn2)CC1,Potency,[1],active: 2.09 µM
same,Potency,[7],active: 23.5 µM
same,Potency,[4],"inconclusive: 1.18 µM [falling, full curve]"
NCCCCNCCCN,Potency,[1],"inconclusive: 37.2 µM [cytotoxic, partial curve, poor fit]"
same,Potency,[2],active: 20.9 µM
same,Potency,[3],"inconclusive: 18.7 µM [cytotoxic, partial curve]"
same,Potency,[5],inactive
same,Potency,[4],"inconclusive: 9.35 µM [falling, partial curve, poor fit]"
C=CC(=O)N1CCc2ccc(-n3c(=O)ccc4cnc5ccc(-c6cnn(C)c6)cc5c43)cc21,Potency,[1],active: 1.05 µM
same,Potency,[2],active: 2.35 µM
same,Potency,[4],"inconclusive: 7.43 µM [falling, full curve]"
O=C(O)[C@H](Cc1c[nH]c2ccccc12)N1C(=O)c2ccccc2C1=O,Potency,[8],"inconclusive: 38.2 µM [cytotoxic, partial curve, poor fit]"
same,Potency,[6],"inconclusive: 67.9 µM [cytotoxic, single point]"
same,Potency,[7],inactive
same,Potency,[2],inactive
same,Potency,[3],inactive
COc1cc(NCc2ccc3nc(N)nc(N)c3c2C)cc(OC)c1OC,Potency,[1],active: 0.743 µM
same,Potency,[7],active: 16.6 µM
same,Potency,[4],"inconclusive: 18.7 µM [falling, partial curve]"
same,Potency,[10],active: 0.0071 µM
same,Potency,[11],active: 0.0063 µM
CC(C)c1ccccc1Cc1cc(C(=O)Nc2ccc(S(=O)(=O)c3ccccc3C(C)(C)C)cc2)c(O)c(O)c1O,Potency,[8],active: 5.26 µM
same,Potency,[7],"inconclusive: 6.62 µM [cytotoxic, full curve]"
same,Potency,[2],"inconclusive: 20.9 µM [cytotoxic, partial curve]"
same,Potency,[4],"inconclusive: 10.5 µM [falling, partial curve]"
O=C(NC[C@H](O)CO)c1ccncc1Nc1ccc(I)cc1F,Potency,[1],"inconclusive: 16.6 µM [cytotoxic, partial curve, poor fit]"
same,Potency,[2],"inconclusive: 18.7 µM [cytotoxic, partial curve]"
same,Potency,[3],active: 2.64 µM
same,Potency,[4],"inconclusive: 0.0833 µM [falling, full curve]"
NC(=NCc1ccccc1)NC(=O)c1nc(Cl)c(N)nc1N,Potency,[1],inactive
same,Potency,[2],inactive
same,Potency,[4],"inconclusive: 13.2 µM [falling, partial curve]"
C[C@@H](N)c1ccc(C(=O)Nc2ccnc3[nH]ccc23)cc1,Potency,[1],active: 16.6 µM
same,Potency,[3],"inconclusive: 37.2 µM [cytotoxic, single point]"
same,Potency,[4],"inconclusive: 23.5 µM [falling, partial curve]"
Cc1cccc(-c2[nH]c(C(C)(C)C)nc2-c2ccc3c(c2)OCO3)n1,Potency,[1],active: 0.743 µM
same,Potency,[2],"inconclusive: 26.4 µM [cytotoxic, partial curve, poor fit]"
same,Potency,[4],"inconclusive: 13.2 µM [falling, partial curve]"
COCC(=O)NCC=Cc1ccc2ncnc(Nc3ccc(Oc4ccc(C)nc4)c(C)c3)c2c1,Potency,[1],"inconclusive: 16.6 µM [cytotoxic, partial curve, poor fit]"
same,Potency,[2],"inconclusive: 0.235 µM [rising, full curve, poor fit]"
same,Potency,[4],"inconclusive: 18.7 µM [falling, partial curve]"
Cc1cc(Nc2cc(N3CCN(C)CC3)nc(C=Cc3ccccc3)n2)n[nH]1,Potency,[1],active: 1.91 µM
same,Potency,[4],"inconclusive: 10.8 µM [falling, partial curve]"
Cc1[nH]nc2ccc(-c3cncc(OC[C@@H](N)Cc4ccccc4)c3)cc12,Potency,[8],active: 1.18 µM
same,Potency,[4],"inconclusive: 1.32 µM [falling, full curve]"
Clc1ccc2ncc(-c3cccc(NC4CNC4)n3)n2c1,Potency,[1],"inconclusive: 2.96 µM [cytotoxic, partial curve, poor fit]"
same,Potency,[5],"inconclusive: 33.2 µM [cytotoxic, single point]"
same,Potency,[4],"inconclusive: 2.64 µM [falling, full curve]"
C[C@]1(CO)CN(c2cc(C(=O)Nc3ccc4c(c3)-c3c(c(C(N)=O)nn3-c3ccc(F)cc3)CC4)c(Cl)cn2)C[C@@]1(C)CO,Potency,[6],active: 16.6 µM
same,Potency,[7],active: 2.96 µM
same,Potency,[2],"inconclusive: 14.8 µM [cytotoxic, partial curve]"
same,Potency,[5],"inconclusive: 14.8 µM [cytotoxic, partial curve]"
same,Potency,[4],"inconclusive: 13.2 µM [falling, partial curve]"
Nc1nc(F)nc2c1ncn2[C@@H]1O[C@H](CO)[C@@H](O)[C@@H]1O,Potency,[8],active: 0.209 µM
same,Potency,[7],active: 0.418 µM
same,Potency,[4],active: 0.372 µM
CCC(C(=O)O)C1CCC(C)C(C(C)C(O)C(C)C(=O)C(CC)C2OC3(C=CC(O)[C@@]4(CC[C@](C)(C5CC[C@@](O)(CC)C(C)O5)O4)O3)C(C)CC2C)O1 (some centres undefined),Potency,[8],active: 2.64 µM
same,Potency,[4],"inconclusive: 14.8 µM [falling, partial curve]"
same,Potency,[9],inconclusive: 0.631 µM [activator]
CN(C)CCN(Cc1ccc(Cl)cc1)c1ccccn1,Potency,[8],"inconclusive: 23.5 µM [cytotoxic, single point]"
same,Potency,[6],"inconclusive: 11.8 µM [cytotoxic, partial curve]"
same,Potency,[7],inactive
same,Potency,[2],inactive
same,Potency,[4],"inconclusive: 18.7 µM [falling, partial curve]"

# 4 entries picked at random from the list so far, as already listed:
smiles,measurement,setting,value
COC1CCC(C(=O)c2ccc3nc4c(cc3c2)CCCO4)CC1 (centres undefined),Potency,[4],"inconclusive: 26.4 µM [falling, single point]"
CC(C)c1ccccc1Cc1cc(C(=O)Nc2ccc(S(=O)(=O)c3ccccc3C(C)(C)C)cc2)c(O)c(O)c1O,Potency,[8],active: 5.26 µM
NC(=O)N1CCC(CC(=O)N2CCC([C@H]3c4ncc(Br)cc4CCc4cc(Cl)cc(Br)c43)CC2)CC1,Potency,[1],"inconclusive: 16.6 µM [cytotoxic, partial curve, poor fit]"
COCC(=O)NCC=Cc1ccc2ncnc(Nc3ccc(Oc4ccc(C)nc4)c(C)c3)c2c1,Potency,[1],"inconclusive: 16.6 µM [cytotoxic, partial curve, poor fit]"
